These are yes or no findings as the source states them, for the method shown. A result given as binding can be weak or reduced; the word gives no strength. For part of these data: Tags and fused reporters may be left off the sequences shown. For part of these data: In cells and extracts the contact can be indirect. Values belong to the molecule of their own block, whether it stands above or below them.
What was measured:
[1] = target: T1, GST-Mdv1(319–651) (Schizosaccharomyces pombe) (UniProt Q9P7I3); test: pull-down; GST-fused bait on glutathione Sepharose 4B resins, purified prey; TBST (0.5% Triton X-100) with 5% glycerol, 4°C, 2 h; western blot; both purified
T1 sequence: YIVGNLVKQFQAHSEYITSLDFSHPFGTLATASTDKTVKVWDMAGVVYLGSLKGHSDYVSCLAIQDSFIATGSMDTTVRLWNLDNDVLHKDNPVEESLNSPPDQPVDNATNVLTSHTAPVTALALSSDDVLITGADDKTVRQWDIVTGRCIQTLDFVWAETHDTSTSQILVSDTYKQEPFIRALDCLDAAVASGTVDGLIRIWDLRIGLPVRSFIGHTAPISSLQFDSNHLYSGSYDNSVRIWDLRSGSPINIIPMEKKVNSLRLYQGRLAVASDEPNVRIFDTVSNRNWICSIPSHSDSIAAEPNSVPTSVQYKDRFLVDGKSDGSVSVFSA

[2] = target: T2, GFP-Fis1 (Schizosaccharomyces pombe) (UniProt Q9USZ8); test: co-IP; S. pombe cell lysate in TBS with 0.5% Triton X-100; antibodies against GFP or Dnm1 on Dynabeads protein G, 4°C, 2 h; western blot with antibodies against Myc, GFP and Dnm1
T2 sequence: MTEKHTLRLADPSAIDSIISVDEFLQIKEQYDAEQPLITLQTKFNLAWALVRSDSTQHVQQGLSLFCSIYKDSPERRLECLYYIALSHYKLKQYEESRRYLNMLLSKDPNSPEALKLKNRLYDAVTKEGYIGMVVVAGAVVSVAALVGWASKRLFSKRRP

[3] = target: T3, endogenous Dnm1 (Schizosaccharomyces pombe (endogenous in S. pombe cells)) (UniProt Q09748); test: as above
T3 sequence: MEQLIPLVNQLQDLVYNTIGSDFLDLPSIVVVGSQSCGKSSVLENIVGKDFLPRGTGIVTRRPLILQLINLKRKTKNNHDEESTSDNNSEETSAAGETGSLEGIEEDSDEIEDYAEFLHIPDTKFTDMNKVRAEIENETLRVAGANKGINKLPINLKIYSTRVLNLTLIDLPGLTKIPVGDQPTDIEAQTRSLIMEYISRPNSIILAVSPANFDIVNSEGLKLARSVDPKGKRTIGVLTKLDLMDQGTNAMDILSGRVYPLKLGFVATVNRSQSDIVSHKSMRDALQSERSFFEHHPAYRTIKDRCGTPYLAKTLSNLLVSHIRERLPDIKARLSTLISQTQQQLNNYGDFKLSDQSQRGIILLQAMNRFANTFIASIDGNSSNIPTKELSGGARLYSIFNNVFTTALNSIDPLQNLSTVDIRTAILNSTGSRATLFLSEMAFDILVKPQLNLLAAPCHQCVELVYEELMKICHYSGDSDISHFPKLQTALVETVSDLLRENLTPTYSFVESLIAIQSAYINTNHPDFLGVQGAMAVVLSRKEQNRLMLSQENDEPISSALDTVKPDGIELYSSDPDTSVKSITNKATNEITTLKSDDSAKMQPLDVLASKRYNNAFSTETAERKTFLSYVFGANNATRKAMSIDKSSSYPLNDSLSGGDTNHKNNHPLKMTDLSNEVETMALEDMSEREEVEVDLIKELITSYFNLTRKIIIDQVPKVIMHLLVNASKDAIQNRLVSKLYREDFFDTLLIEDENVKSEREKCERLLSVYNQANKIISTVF

[4] = target: T4, GFP-Mdv1 (Schizosaccharomyces pombe) (UniProt Q9P7I3); test: as above
T4 sequence: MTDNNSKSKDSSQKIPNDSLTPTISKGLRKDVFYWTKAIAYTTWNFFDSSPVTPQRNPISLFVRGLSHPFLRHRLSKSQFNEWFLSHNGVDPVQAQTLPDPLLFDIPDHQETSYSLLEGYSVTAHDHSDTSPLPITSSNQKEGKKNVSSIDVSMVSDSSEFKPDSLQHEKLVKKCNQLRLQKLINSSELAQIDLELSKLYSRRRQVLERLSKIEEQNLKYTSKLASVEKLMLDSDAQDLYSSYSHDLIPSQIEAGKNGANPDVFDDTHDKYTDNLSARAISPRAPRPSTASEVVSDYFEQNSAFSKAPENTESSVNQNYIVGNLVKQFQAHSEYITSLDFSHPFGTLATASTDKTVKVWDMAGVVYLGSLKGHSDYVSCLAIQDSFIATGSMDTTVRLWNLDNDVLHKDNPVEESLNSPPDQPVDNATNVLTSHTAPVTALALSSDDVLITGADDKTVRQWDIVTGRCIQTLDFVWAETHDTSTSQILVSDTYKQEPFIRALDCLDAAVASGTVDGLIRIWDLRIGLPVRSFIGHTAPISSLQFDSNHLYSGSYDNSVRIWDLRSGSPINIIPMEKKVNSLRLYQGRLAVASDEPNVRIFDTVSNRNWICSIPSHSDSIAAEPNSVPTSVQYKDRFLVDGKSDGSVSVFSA

[5] = target: GST-Yta4(33–355) (Schizosaccharomyces pombe); test: pull-down; GST-fused bait on glutathione Sepharose 4B resins, purified prey; TBST (0.5% Triton X-100) with 5% glycerol, 4°C, 2 h; western blot; both purified
[6] = target: GST-Yta4(33–355) (Schizosaccharomyces pombe); test: pull-down; GST-fused bait on glutathione resins, His-Fis1(a.a. 1–128) as prey; TBST with 5% glycerol and 40 mM imidazole, 4°C, 2 h; with Yta4 hexamers 0 or 1 mM ATP; both purified

binding [1]: binds
Molecule: His-Yta4(a.a. 33–355) (Schizosaccharomyces pombe) (domain or fragment)

binding [2]: binds
binding [3]: binds
binding [4]: binds
Molecule: Yta4-13Myc (Schizosaccharomyces pombe)

binding [5]: binds
B1: Dnm1 (enzyme, Schizosaccharomyces pombe, UniProt Q09748 1-781, looked up)
chain: MEQLIPLVNQLQDLVYNTIGSDFLDLPSIVVVGSQSCGKSSVLENIVGKDFLPRGTGIVTRRPLILQLINLKRKTKNNHDEESTSDNNSEETSAAGETGSLEGIEEDSDEIEDYAEFLHIPDTKFTDMNKVRAEIENETLRVAGANKGINKLPINLKIYSTRVLNLTLIDLPGLTKIPVGDQPTDIEAQTRSLIMEYISRPNSIILAVSPANFDIVNSEGLKLARSVDPKGKRTIGVLTKLDLMDQGTNAMDILSGRVYPLKLGFVATVNRSQSDIVSHKSMRDALQSERSFFEHHPAYRTIKDRCGTPYLAKTLSNLLVSHIRERLPDIKARLSTLISQTQQQLNNYGDFKLSDQSQRGIILLQAMNRFANTFIASIDGNSSNIPTKELSGGARLYSIFNNVFTTALNSIDPLQNLSTVDIRTAILNSTGSRATLFLSEMAFDILVKPQLNLLAAPCHQCVELVYEELMKICHYSGDSDISHFPKLQTALVETVSDLLRENLTPTYSFVESLIAIQSAYINTNHPDFLGVQGAMAVVLSRKEQNRLMLSQENDEPISSALDTVKPDGIELYSSDPDTSVKSITNKATNEITTLKSDDSAKMQPLDVLASKRYNNAFSTETAERKTFLSYVFGANNATRKAMSIDKSSSYPLNDSLSGGDTNHKNNHPLKMTDLSNEVETMALEDMSEREEVEVDLIKELITSYFNLTRKIIIDQVPKVIMHLLVNASKDAIQNRLVSKLYREDFFDTLLIEDENVKSEREKCERLLSVYNQANKIISTVF
notes: Dnm1, fission yeast dynamin-related GTPase; also called Dnm1(WT); recombinant Dnm1; source: E. coli Rosseta, purified (Ni-NTA, sumo protease, size-exclusion chromatography); not shown: His-sumo, N-terminal, cleaved

binding [6]: binds
B2: His-Fis1(1–128) (domain or fragment, Schizosaccharomyces pombe, UniProt Q9USZ8 1-128, looked up)
chain: MTEKHTLRLADPSAIDSIISVDEFLQIKEQYDAEQPLITLQTKFNLAWALVRSDSTQHVQQGLSLFCSIYKDSPERRLECLYYIALSHYKLKQYEESRRYLNMLLSKDPNSPEALKLKNRLYDAVTKE
notes: also called His-Fis1(∆TM); Fis1(∆TM); source: E. coli BL21, purified (Ni-NTA, size-exclusion chromatography); not shown: His tag, N-terminal, kept

From paper PMC10465003, “The AAA-ATPase Yta4/ATAD1 interacts with the mitochondrial divisome to inhibit mitochondrial fission” (PLOS Biology, 2023)
